PubChem BioAssay AID1259405, NCATS – 2018
The deposit covers about 50,000 reagents; shown is a part drawn at random. Of all reagents, about 4,000 (8%) got an active call. 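Mouse siRNA library applied to hamster cells; one well for each siRNA.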 Entries without a mark were called inactive. The numbers tell different reagents against one gene apart.

Purpose: 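Silenced genes that increase secreted GFP made by CHO cells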 (primary screen)
Cells: Chinese hamster CHO-K1 ovary cells with stable secreted eGFP expression
Knock-down reagent: single siRNA against mouse genes, 0.8 pmol siRNA per well (2 µl of 400 nM stock)
Timing: 3 days
Read-out: 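Per-well intracellular GFP measured by laser scanning cytometry, plus viability from ATP luminescence, each relative to plate median of non-targeting control wells, in %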
Reading the numbers: GFP, % of control: higher = more GFP per well, higher productivity; viability (ATP), % of control: higher = more viable cells (more ATP)
Active means: 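Called active when intracellular GFP, relative to negative control, is at or above 120%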

| gene knocked down | siRNA no. | GFP, % of control | viability (ATP), % of control |
| --- | --- | --- | --- |
| Grtp1 (GH regulated TBC protein 1) | 1 | 152 (active) | 76.6 |
| Grtp1 (GH regulated TBC protein 1) | 2 | 73.3 | 92.9 |
| Grtp1 (GH regulated TBC protein 1) | 3 | 25.1 | 22.8 |
| Cep164 (centrosomal protein 164) | 1 | 67 | 106 |
| Cep164 (centrosomal protein 164) | 2 | 65.9 | 78.7 |
| Cep164 (centrosomal protein 164) | 3 | 77.2 | 89.9 |
| C1galt1c1 (C1GALT1-specific chaperone 1) | 1 | 100 | 89.7 |
| C1galt1c1 (C1GALT1-specific chaperone 1) | 2 | 57.5 | 83.2 |
| C1galt1c1 (C1GALT1-specific chaperone 1) | 3 | 48.3 | 52.4 |
| Spata31d1a (spermatogenesis associated 31 subfamily D, member 1A) | 1 | 37.6 | 57.7 |
| Spata31d1a (spermatogenesis associated 31 subfamily D, member 1A) | 2 | 54.1 | 73.7 |
| Spata31d1a (spermatogenesis associated 31 subfamily D, member 1A) | 3 | 56.5 | 48 |
| Grin2b (glutamate receptor, ionotropic, NMDA2B (epsilon 2)) | 1 | 101 | 92.2 |
| Grin2b (glutamate receptor, ionotropic, NMDA2B (epsilon 2)) | 2 | 61.5 | 40.7 |
| Grin2b (glutamate receptor, ionotropic, NMDA2B (epsilon 2)) | 3 | 53.6 | 37.9 |
| Nudcd1 (NudC domain containing 1) | 1 | 61 | 55.8 |
| Nudcd1 (NudC domain containing 1) | 2 | 125 (active) | 64.4 |
| Nudcd1 (NudC domain containing 1) | 3 | 89.6 | 93.4 |
| Gdf3 (growth differentiation factor 3) | 1 | 99.2 | 61.9 |
| Gdf3 (growth differentiation factor 3) | 2 | 62.8 | 64.2 |
| Gdf3 (growth differentiation factor 3) | 3 | 78.3 | 71.9 |
| Trap1a (tumor rejection antigen P1A) | 1 | 38.4 | 47.7 |
| Trap1a (tumor rejection antigen P1A) | 2 | 78.7 | 99.4 |
| Trap1a (tumor rejection antigen P1A) | 3 | 70.4 | 95.4 |
| Or5b95 (olfactory receptor family 5 subfamily B member 95) | 1 | 47 | 27.6 |
| Or5b95 (olfactory receptor family 5 subfamily B member 95) | 2 | 98.5 | 70.5 |
| Or5b95 (olfactory receptor family 5 subfamily B member 95) | 3 | 36.3 | 45 |
| Itgb3 (integrin beta 3) | 1 | 65.9 | 139 |
| Itgb3 (integrin beta 3) | 2 | 70.4 | 77.7 |
| Fam50a (family with sequence similarity 50, member A) | 1 | 75.4 | 98.3 |
| Fam50a (family with sequence similarity 50, member A) | 2 | 104 | 41.1 |
| Fam50a (family with sequence similarity 50, member A) | 3 | 85.2 | 87.3 |
| Narf (nuclear prelamin A recognition factor) | 1 | 101 | 64.6 |
| Narf (nuclear prelamin A recognition factor) | 2 | 54.2 | 59.2 |
| Narf (nuclear prelamin A recognition factor) | 3 | 75.2 | 95.7 |
| Spib (Spi-B transcription factor (Spi-1/PU.1 related)) | 1 | 70 | 71.2 |
| Spib (Spi-B transcription factor (Spi-1/PU.1 related)) | 2 | 55.5 | 54.6 |
| Spib (Spi-B transcription factor (Spi-1/PU.1 related)) | 3 | 101 | 39 |
| 1700019M22Rik (RIKEN cDNA 1700019M22 gene) | 1 | 101 | 84.5 |
| 1700019M22Rik (RIKEN cDNA 1700019M22 gene) | 2 | 161 (active) | 88.5 |
| 1700019M22Rik (RIKEN cDNA 1700019M22 gene) | 3 | 81.2 | 47.4 |
| Clgn (calmegin) | 1 | 106 | 122 |
| Clgn (calmegin) | 2 | 90.5 | 89.8 |
| Clgn (calmegin) | 3 | 75.6 | 111 |
| Pfn3 (profilin 3) | 1 | 66.6 | 72.6 |
| Pfn3 (profilin 3) | 2 | 52.3 | 46.6 |
| Pfn3 (profilin 3) | 3 | 55.3 | 68.4 |
| Esd (esterase D/formylglutathione hydrolase) | 1 | 111 | 82.7 |
| Esd (esterase D/formylglutathione hydrolase) | 2 | 99.4 | 64.9 |
| Esd (esterase D/formylglutathione hydrolase) | 3 | 80.3 | 89.9 |
| Ints9 (integrator complex subunit 9) | 1 | 82.8 | 118 |
| Ints9 (integrator complex subunit 9) | 2 | 95.3 | 85.9 |
| Ints9 (integrator complex subunit 9) | 3 | 190 (active) | 106 |
| Ephx1 (epoxide hydrolase 1, microsomal) | 1 | 92.1 | 133 |
| Ephx1 (epoxide hydrolase 1, microsomal) | 2 | 77.1 | 83.3 |
| Ephx1 (epoxide hydrolase 1, microsomal) | 3 | 102 | 66 |
| Bmp8a (bone morphogenetic protein 8a) | 1 | 81.3 | 50.6 |
| Bmp8a (bone morphogenetic protein 8a) | 2 | 44.6 | 64.6 |
| Bmp8a (bone morphogenetic protein 8a) | 3 | 77.9 | 70.5 |
| Fam131b (family with sequence similarity 131, member B) | 1 | 52.7 | 48.7 |
| Fam131b (family with sequence similarity 131, member B) | 2 | 67.3 | 76.2 |
| Fam131b (family with sequence similarity 131, member B) | 3 | 118 | 118 |
| Psd3 (pleckstrin and Sec7 domain containing 3) | 1 | 104 | 87.9 |
| Psd3 (pleckstrin and Sec7 domain containing 3) | 2 | 96.2 | 65 |
| Psd3 (pleckstrin and Sec7 domain containing 3) | 3 | 66.6 | 72.4 |
| Slc24a1 | 1 | 54.6 | 59.3 |
| Slc24a1 | 2 | 57.7 | 38 |
| Slc24a1 | 3 | 6.08 | 9.9 |
| Cpa5 (carboxypeptidase A5) | 1 | 77.9 | 92.4 |
| Cpa5 (carboxypeptidase A5) | 2 | 41.9 | 43.1 |
| Cpa5 (carboxypeptidase A5) | 3 | 51.6 | 66.2 |
| Mau2 | 1 | 59.9 | 78.6 |
| Mau2 | 2 | 108 | 90.9 |
| Mau2 | 3 | 122 (active) | 104 |
| Tbc1d25 (TBC1 domain family, member 25) | 1 | 99 | 53.4 |
| Tbc1d25 (TBC1 domain family, member 25) | 2 | 113 | 68.8 |
| Tbc1d25 (TBC1 domain family, member 25) | 3 | 56.9 | 75.7 |
| Mlh1 (mutL homolog 1) | 1 | 96.9 | 89 |
| Mlh1 (mutL homolog 1) | 2 | 97 | 80.2 |
| Mlh1 (mutL homolog 1) | 3 | 71.1 | 51.6 |
| Plin4 (perilipin 4) | 1 | 194 (active) | 179 |
| Plin4 (perilipin 4) | 2 | 59.7 | 74.1 |
| Plin4 (perilipin 4) | 3 | 50.9 | 71.5 |
| Shank3 (SH3 and multiple ankyrin repeat domains 3) | 1 | 87.8 | 52.1 |
| Shank3 (SH3 and multiple ankyrin repeat domains 3) | 2 | 68.1 | 46.1 |
| Shank3 (SH3 and multiple ankyrin repeat domains 3) | 3 | 70.1 | 98.4 |
| Ubqln1 (ubiquilin 1) | 1 | 54.4 | 47.7 |
| Ubqln1 (ubiquilin 1) | 2 | 91.6 | 55.2 |
| Ubqln1 (ubiquilin 1) | 3 | 81.6 | 103 |
| Defb22 (defensin beta 22) | 1 | 86.7 | 57.3 |
| Defb22 (defensin beta 22) | 2 | 127 (active) | 107 |
| Defb22 (defensin beta 22) | 3 | 80.8 | 83.7 |
| S100a3 (S100 calcium binding protein A3) | 1 | 94.6 | 124 |
| S100a3 (S100 calcium binding protein A3) | 2 | 93.3 | 71.1 |
| Parp16 (poly (ADP-ribose) polymerase family, member 16) | 1 | 49.5 | 76.5 |
| Parp16 (poly (ADP-ribose) polymerase family, member 16) | 2 | 90.1 | 107 |
| Parp16 (poly (ADP-ribose) polymerase family, member 16) | 3 | 68.3 | 103 |
| Celf5 (CUGBP, Elav-like family member 5) | 1 | 86.5 | 92.5 |
| Celf5 (CUGBP, Elav-like family member 5) | 2 | 144 (active) | 61.5 |
| Celf5 (CUGBP, Elav-like family member 5) | 3 | 51.4 | 78.8 |
| Tnfaip1 (tumor necrosis factor, alpha-induced protein 1 (endothelial)) | 1 | 132 (active) | 67.6 |
| Tnfaip1 (tumor necrosis factor, alpha-induced protein 1 (endothelial)) | 2 | 56.6 | 70.6 |
| Tnfaip1 (tumor necrosis factor, alpha-induced protein 1 (endothelial)) | 3 | 47.2 | 41.4 |
| Rab24 (RAB24, member RAS oncogene family) | 1 | 80.8 | 72.4 |
| Rab24 (RAB24, member RAS oncogene family) | 2 | 57.7 | 77.6 |
| Rab24 (RAB24, member RAS oncogene family) | 3 | 70.2 | 65 |
| Ldlrad4 (low density lipoprotein receptor class A domain containing 4) | 1 | 85.3 | 91.8 |
| Ldlrad4 (low density lipoprotein receptor class A domain containing 4) | 2 | 80.9 | 62 |
| Ldlrad4 (low density lipoprotein receptor class A domain containing 4) | 3 | 68 | 34.3 |

10 neighbouring reagents already listed, for reference:
| gene knocked down | siRNA no. | GFP, % of control | viability (ATP), % of control |
| --- | --- | --- | --- |
| Slc24a1 | 1 | 54.6 | 59.3 |
| Slc24a1 | 2 | 57.7 | 38 |
| Slc24a1 | 3 | 6.08 | 9.9 |
| Cpa5 (carboxypeptidase A5) | 1 | 77.9 | 92.4 |
| Cpa5 (carboxypeptidase A5) | 2 | 41.9 | 43.1 |
| Cpa5 (carboxypeptidase A5) | 3 | 51.6 | 66.2 |
| Mau2 | 1 | 59.9 | 78.6 |
| Mau2 | 2 | 108 | 90.9 |
| Mau2 | 3 | 122 (active) | 104 |
| Tbc1d25 (TBC1 domain family, member 25) | 1 | 99 | 53.4 |
